Source: patent US11732277B2, “Cellular production of pure iron oxide nanoparticles” (NANOBACTERIE, priority 2018, dated 2023)
Some results were stated once for a whole list of compounds, not compound by compound.

Experiments:
[1] = test system: MSR-1 magnetotactic bacteria; format: cell-based; conditions: condition 4, individual vitamin replacing yeast extract, mineral elixir CB3; 50 mL tubes
Procedure: Optical density measurements of suspensions of whole magnetotactic bacteria to assess bacterial growth: The optical density of the different suspensions of magnetotactic bacteria was measured at 565 nm, designated as OD565 nm, using a Secomam UviLine9400 spectrophotometer. The value of OD565 nm is proportional to the concentrations of bacteria in the suspensions. […]
This example describes the experimental protocol used to determine the reduced medium replacing the yeast extract that enables the growth of MSR-1 magnetotactic bacteria and the synthesis of magnetosomes by these bacteria. In this example we used non-pharmaceutical grade chemicals for the preparation of the growth media. The compositions of pre-growth and growth media, in one liter of de-ionized water, are indicated in table 2 (condition 2), table 3 (condition 3), and table 4 (condition 4). During the first day of the experiment (D1), a first step consists in collecting the tubes of 15 ml containing 5 mL of MSR-1 cellular stock tube from the freezer at −80° C., in thawing the tubes by letting them at room temperature for 10 minutes. In a hood, we collected from these tubes 100 μl comprising 5.10^6 MSR-1 magnetotactic bacteria that we have inserted in a 50 mL tube comprising 8 mL of filtered pre-growth medium of either condition 2 (table 2), condition 3 (table 3), or condition 4 (table 4). […]

[2] = test system: MSR-1 magnetotactic bacteria; format: cell-based; conditions: condition 4, individual vitamin replacing yeast extract; at D13
Procedure: Measurement of the magnetic response of living magnetotactic bacteria using optical microscopic observations of these bacteria under the application of a magnetic field: 1 mL of a suspension of MSR-1 magnetotactic bacteria was centrifugated at 14500 rpm for 10 minutes. The growth medium was removed and replaced by a volume of PBS 0.1× to reach an OD565 nm of 0.5. 1 μL of this suspension of MSR-1 magnetotactic bacteria was deposited on a parallelipedic microscope slide (Menzel-Glaser, 24 mm×60 mm, […]) for microscopic observation using a Zeiss Primo Vert optical microscope with X40 magnification. Four small cubic Neodinium magnets of strength 1.3 T (Supermagnet, N42 W-10-N 10×10×10 mm) were positioned on the microscope's platform at a distance from the suspension of bacteria of ˜2 cm in such a way that it either generated a magnetic field parallel to the position of the observer or to the line between the two binoculars (position 1) or perpendicular to this position (position 2). 20 seconds after positioning the magnet in position 1 or 2, the percentage of bacteria aligned in the direction of the magnetic field was estimated, by considering 200 magnetotactic bacteria. […]
In some cases, the percentage of magnetic bacteria can be measured by optical observation under microscope in the presence of a magnetic field.

| SMILES | OD565 nmD13/OD565 nmD6 [1] | magnetic response [2] |
| --- | --- | --- |
| Cc1cc2nc3c(=O)[nH]c(=O)nc-3n(C[C@H](O)[C@H](O)[C@H](O)CO)c2cc1C [Riboflavin] | > 1 | > 90% |
| Nc1nc2ncc(CNc3ccc(C(=O)N[C@@H](CCC(=O)O)C(=O)O)cc3)nc2c(=O)[nH]1 [folic acid, Folic acid] | > 1 | > 90% |
